According to PubChem BioAssay AID493014 (National Center for Advancing Translational Sciences (NCATS), 2011):
Some of the results follow. The main result of the screen is listed elsewhere. These columns were measured beside it and carry no call. Compounds called inactive in the main read-out are mostly missing here. Potencies come from curve fits of mixed quality, noted in brackets.

Assay: qHTS Assay to Find Inhibitors of Chronic Active B-Cell Receptor Signaling
Conditions: ABC-DLBCL IkBa-CBG/CBR reporter, luminescence ratio (green luciferase fused to IkBa over red control in TMD8 lymphoma cells), 4 h
How it was run: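 Compounds up to 46 uM were incubated four hours with TMD8 cells whose green CBG68 luciferase is fused to IkappaBalpha; red CBR luminescence normalised the signal, and concentration-effect curves were fitted to fusion, red and ratio data.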

[1] = measured here: CBR red luminescence, cell number
[2] = measured here: IkBa-CBG green luminescence

Question: Which AC50 [1] does the source give for CCN1c2ccccc2-c2nc3ccccc3n2C1c1ccncc1 (configuration not stated) here?
Answer: Its AC50 is 14.1 µM [falling, partial curve].

Question: For COc1ccc(-c2nnc(SCC(C)C)o2)cc1, which AC50 [1] is on record?
Answer: The AC50 was 12.6 µM [falling, single point].

Question: With NC(=O)CC(NC(=O)Cc1ccc(Br)cc1)c1ccc(NC2CC3CCC2C3)c([N+](=O)[O-])c1 (configuration not stated) as the compound, how does the AC50 [1] read?
Answer: Its AC50 is 15.8 µM [falling, single point].

Question: With CCCN1C(=O)SC(CC(=O)Nc2ccccc2C)C1=O (configuration not stated) as the compound, how does the AC50 [1] read?
Answer: The AC50 was 29.1 µM [falling, single point].

Question: Which AC50 [1] does the source give for NS(=O)(=O)c1ccc(CCNCC(=O)N2CCC(Cc3ccccc3)CC2)cc1 here?
Answer: Its AC50 is 17.8 µM [falling, partial curve, poor fit].

Question: With COc1ccc(NC(=O)c2ccccc2OCc2c(C)noc2C)cc1OC as the compound, how does the AC50 [1] read?
Answer: Its AC50 is 2.82 µM [rising, full curve, poor fit].

Question: Which AC50 [1] does the source give for CC12C(=O)N(c3ccccc3)C(=O)C1C(c1ccccc1)N1CCCN12 (configuration not stated) here?
Answer: Its AC50 is 11.2 µM [rising, partial curve, poor fit].

Question: For Nc1nnc(SCC(=O)Nc2cc(F)ccc2F)s1, which AC50 [1] is on record?
Answer: Its AC50 is 5.17 µM [rising, full curve].

Question: With CC(/C=C1\SC(=S)N(CCC(=O)Nc2cccc(C(=O)O)c2)C1=O)=C\c1ccccc1 as the compound, how does the AC50 [1] read?
Answer: Its AC50 is 11.2 µM [falling, partial curve, poor fit].

Question: With COc1ccc(C2C(C(C)=O)=C(O)C(=O)N2CCc2c[nH]c3ccccc23)cc1OC (configuration not stated) as the compound, how does the AC50 [1] read?
Answer: Its AC50 is 25.9 µM [falling, partial curve, poor fit].

Question: With CCOC(=O)Cc1csc(NC(=O)CCCc2ccccc2)n1 as the compound, how does the AC50 [1] read?
Answer: Its AC50 is 35.5 µM [falling, single point].

Question: Which AC50 [2] does the source give for CCc1ccccc1OCC(=O)Nc1nc(-c2cccnc2)cs1 here?
Answer: Its AC50 is 22.4 µM [falling, single point].

Question: Which AC50 [1] does the source give for Cc1cc(C)n(-c2cc(Oc3ccccc3)ncn2)n1 here?
Answer: The AC50 was 2.31 µM [rising, full curve].

Question: Which AC50 [1] does the source give for Cc1nccn1CCC1CCCCN1C(=O)CCc1nnc(-c2ccsc2)o1 (configuration not stated) here?
Answer: The AC50 was 1.26 µM [rising, full curve, poor fit].

Question: Which AC50 [1] does the source give for O=C(Nc1cccc(NC(=O)c2cccc(Cl)c2)c1)c1cccnc1 here?
Answer: Its AC50 is 1.58 µM [falling, full curve, poor fit].

Question: For CC(=O)Nc1ccc(NC(=O)c2ccccc2F)cc1, which AC50 [1] is on record?
Answer: The AC50 was 11.6 µM [falling, partial curve, poor fit].

Question: With Cc1onc(-c2c(F)cccc2Cl)c1C(=O)OCc1cnc(Cl)s1 as the compound, how does the AC50 [1] read?
Answer: Its AC50 is 3.98 µM [rising, full curve, poor fit].

Question: Which AC50 [1] does the source give for Cc1ccc(C(C(=O)NC2CCCCC2)N(Cc2ccco2)C(=O)Cc2c[nH]c3ccccc23)o1 (configuration not stated) here?
Answer: The AC50 was 29.1 µM [falling, single point].

Question: With O=C1C=C(Nc2cccc3cccnc23)c2ccccc2C1=O as the compound, how does the AC50 [1] read?
Answer: The AC50 was 0.631 µM [rising, full curve, poor fit].

Question: And the AC50 [2]?
Answer: The AC50 was 1 µM [falling, full curve].

Question: For C/C(=N\NC(=O)c1nonc1N)c1cccs1, which AC50 [1] is on record?
Answer: Its AC50 is 10.3 µM [falling, partial curve, poor fit].

Question: What does the source list for COc1ccc2nc3c(cc2c1)c(NC(=O)CC(C)C)nn3CC(C)C?
Answer: AC50 [1]: 1.26 µM [falling, partial curve, poor fit]; AC50 [2]: 3.16 µM [rising, full curve, poor fit]

Question: For Cc1[nH]n(-c2cccc(Cl)c2)c(=O)c1-c1ccc(Cl)cc1, which AC50 [1] is on record?
Answer: Its AC50 is 18.4 µM [falling, single point].

Question: Which AC50 [1] does the source give for COc1cccc(CNc2ncc(-c3ccccc3)n2C)c1 here?
Answer: The AC50 was 11.2 µM [falling, partial curve].

Question: With Cc1ccc(NC(=O)c2cc3ccccc3o2)nc1 as the compound, how does the AC50 [1] read?
Answer: Its AC50 is 6.51 µM [falling, full curve].

Question: Which AC50 [1] does the source give for Cc1cccc(N2CCN(C(=O)C3CCN(S(=O)(=O)c4c(C)noc4C)CC3)CC2C)c1 (configuration not stated) here?
Answer: Its AC50 is 10 µM [falling, partial curve, poor fit].

Question: Which AC50 [1] does the source give for c1cncc(-c2nc(-c3ccc4c(c3)OCCO4)cs2)c1 here?
Answer: The AC50 was 2.51 µM [rising, partial curve, poor fit].

Question: For CN(Cc1ccccc1)C(=O)c1nc[nH]c1C(=O)N1CCc2ccccc2C1, which AC50 [1] is on record?
Answer: The AC50 was 16.4 µM [falling, single point].

Question: With Cc1ccc(C)c2nc3sc(C(=O)O)cc3cc12 as the compound, how does the AC50 [1] read?
Answer: Its AC50 is 10 µM [falling, partial curve].

Question: Which AC50 [1] does the source give for CCN(CC(=O)NCc1ccc(Cl)cc1)C(=O)CN1C(=O)NC(C)(c2ccccc2)C1=O (configuration not stated) here?
Answer: The AC50 was 6.31 µM [rising, single point].

Question: For CCOc1ccc(OCCOC(=O)CNC(=O)c2ccc(Cl)cc2Cl)cc1, which AC50 [1] is on record?
Answer: Its AC50 is 18.4 µM [rising, single point].

Question: For O=C(Cc1ccc(Cl)cc1)NNc1c(F)c(F)cc(F)c1F, which AC50 [1] is on record?
Answer: The AC50 was 0.092 µM [falling, full curve, poor fit].

Question: Which AC50 [1] does the source give for CC(=O)Nc1cccc(-c2csc(Nc3ccc(Cl)cn3)n2)c1 here?
Answer: Its AC50 is 7.94 µM [falling, partial curve].

Question: For CC(C)=NN1C(=O)c2ccccc2NC1(C)C, which AC50 [1] is on record?
Answer: Its AC50 is 15.8 µM [falling, single point].

Question: Which AC50 [1] does the source give for O=C(CSc1nnc(Nc2ccccc2)s1)Nc1ccc(S(=O)(=O)N2CCOCC2)cc1 here?
Answer: The AC50 was 5.8 µM [falling, full curve, poor fit].

Question: Which AC50 [1] does the source give for COc1ccccc1/C=N/NC(=O)c1ccc(NC(=O)c2ccccc2Br)cc1 here?
Answer: Its AC50 is 25.9 µM [falling, partial curve, poor fit].

Question: For CCOc1cc(CNc2ccc3cn[nH]c3c2)ccc1OC, which AC50 [1] is on record?
Answer: Its AC50 is 5.8 µM [falling, full curve, poor fit].

Question: With COc1cc(NC(=O)c2ccc3snnc3c2)cc(OC)c1 as the compound, how does the AC50 [1] read?
Answer: The AC50 was 3.98 µM [falling, partial curve, poor fit].

Question: With Cc1cc(C(=O)N/N=C/c2ccc(Cl)c([N+](=O)[O-])c2)c(C)n1-c1ccc(F)cc1 as the compound, how does the AC50 [1] read?
Answer: The AC50 was 23.1 µM [rising, partial curve, poor fit].

Question: And the AC50 [2]?
Answer: Its AC50 is 18.4 µM [falling, single point].

Question: For O=C1C(=O)N(CCCc2ccccc2)c2ccccc21, which AC50 [1] is on record?
Answer: Its AC50 is 12.6 µM [rising, partial curve, poor fit].

Question: With Cc1ccc(C)n1-c1ccc(C(=O)NN=C2CCCC2)cc1 as the compound, how does the AC50 [1] read?
Answer: Its AC50 is 7.94 µM [falling, partial curve, poor fit].

Question: For N#C/C(=C\c1cccs1)C(=O)Nc1ccccn1, which AC50 [1] is on record?
Answer: The AC50 was 10 µM [falling, partial curve, poor fit].

Question: For CC(C)(C)c1ccc(Cn2nnc3c(=O)[nH]c(C4CCN(C(=O)Cc5cccs5)CC4)nc32)cc1, which AC50 [1] is on record?
Answer: The AC50 was 12.6 µM [falling, partial curve].

Question: With O=C1S/C(=C\C=C\c2ccco2)C(=O)N1c1ccccc1 as the compound, how does the AC50 [1] read?
Answer: The AC50 was 0.0103 µM [rising, full curve, poor fit].

Question: For Cc1ccccc1Cn1cc(NC(=O)COc2ccccc2)cn1, which AC50 [1] is on record?
Answer: The AC50 was 0.562 µM [falling, partial curve, poor fit].

Question: With O=C1NC(=Nc2ccccc2Cl)S/C1=C\c1cccc([N+](=O)[O-])c1O as the compound, how does the AC50 [1] read?
Answer: The AC50 was 4.47 µM [falling, full curve, poor fit].

Question: For Cc1cc(=O)oc2cc(OCc3ccc(C(=O)OCC(=O)N(C)C4CCS(=O)(=O)C4)cc3)ccc12 (configuration not stated), which AC50 [1] is on record?
Answer: The AC50 was 22.4 µM [falling, partial curve, poor fit].

Question: For O=C(NNC(=O)c1ccco1)c1ccccc1, which AC50 [1] is on record?
Answer: The AC50 was 6.51 µM [falling, partial curve, poor fit].

Question: For CCOc1ccc(CCNC(=O)C(CC)n2nc(C)n3c(cc4sccc43)c2=O)cc1OCC (configuration not stated), which AC50 [1] is on record?
Answer: Its AC50 is 32.6 µM [falling, single point].

Question: For COc1ccc(NC(=O)C(OC(=O)c2cnccn2)c2ccccc2)cc1Cl (configuration not stated), which AC50 [1] is on record?
Answer: The AC50 was 11.2 µM [falling, partial curve, poor fit].

Question: For Cc1cccc(CSCc2ccc(C(=O)NC3CCCC3)o2)c1, which AC50 [1] is on record?
Answer: The AC50 was 35.5 µM [rising, single point].

Question: For Cc1cccc(NC2=NC(C)(C)N=C(N)N2)c1, which AC50 [1] is on record?
Answer: The AC50 was 3.55 µM [falling, partial curve, poor fit].

Question: With Cn1nnnc1SCc1ccc(CSc2nnnn2C)cc1 as the compound, how does the AC50 [1] read?
Answer: Its AC50 is 15.8 µM [rising, partial curve, poor fit].

Question: For COc1cccc(N2CCN(C(=O)c3cc4c(s3)-c3ccccc3OC4)CC2)c1, which AC50 [1] is on record?
Answer: Its AC50 is 14.1 µM [falling, partial curve].

Question: For COc1cc2c3nnc(-c4ccc(F)cc4)c-3cn(Cc3ccc(F)cc3)c2cc1OC, which AC50 [1] is on record?
Answer: Its AC50 is 6.51 µM [rising, single point].

Question: For O=C(Cc1ccccc1F)Nc1nc2ccccc2[nH]1, which AC50 [1] is on record?
Answer: The AC50 was 12.6 µM [falling, single point].

Question: For COC(=O)c1ccc(NC(=S)N2CCC(C(N)=O)CC2)cc1, which AC50 [1] is on record?
Answer: Its AC50 is 7.31 µM [falling, partial curve, poor fit].

Question: With COc1ccc(CNC(=O)COC(=O)CCOc2ccccc2)cc1 as the compound, how does the AC50 [1] read?
Answer: Its AC50 is 2.31 µM [rising, partial curve].

Question: With COC1=CC(=O)CC(C)C12Oc1c(Cl)c(OC)cc(OC)c1C2=O (configuration not stated) as the compound, how does the AC50 [1] read?
Answer: Its AC50 is 18.4 µM [rising, partial curve].

Question: What about the AC50 [2] of the same compound?
Answer: Its AC50 is 18.4 µM [falling, partial curve, poor fit].

Question: Which AC50 [1] does the source give for O=C(c1cccs1)N1CCN(c2nc3ccccc3s2)CC1 here?
Answer: Its AC50 is 2 µM [rising, partial curve, poor fit].

Question: Which AC50 [1] does the source give for Cc1cccc(C)c1NC(=O)CNC(=O)CCCN1C(=O)c2cccc3cccc(c23)C1=O here?
Answer: The AC50 was 1.3 µM [rising, full curve, poor fit].

Question: Which AC50 [1] does the source give for COc1ccc(Cl)cc1C(Nc1cccnc1)c1ccc2cccnc2c1O (configuration not stated) here?
Answer: Its AC50 is 35.5 µM [falling, single point].

Question: For CS(=O)(=O)Nc1cccc(C(=O)CC2(O)C(=O)Nc3ccc(Br)cc32)c1 (configuration not stated), which AC50 [2] is on record?
Answer: Its AC50 is 20 µM [falling, partial curve, poor fit].

Question: With Nc1ccccc1SCC(=O)Nc1nc(-c2ccccc2)cs1 as the compound, how does the AC50 [1] read?
Answer: Its AC50 is 25.1 µM [falling, single point].
